Results taken from patent US20180037601A1, “Nucleoside-Based Anti-Bacterial and Anti-Protozoan Drugs” (UTI Limited Partnership, priority 2015, published 2018).

Test system: Plasmodium falciparum (KI), erythrocytic stages
Experiment: In vitro growth inhibition assay of P. falciparum, [3H]-hypoxanthine incorporation
Assay type: cell-based
Details: read-out: IC50 against Plasmodium falciparum
Source text: Each of the nucleoside analogues was examined for in vitro activity against four parasites, T.b. rhodesiene, T. cruzi, L. donovoni and P. falciparum, as well as for cytotoxicity toward the L6 rat myoblast cell line.
All IC50 values are expressed as micromolar. Cytotoxicity (L6 rat myoblast cells); average of duplicate determinations. Trypanosoma brucei rhodesiense (STIB900); average of duplicate determinations. Selectivity index for T.b. rhodesiense (SIr); expressed as the ratio [IC50 (L6/IC50 (T.b. rhodesiense)]. Plasmodium falciparum ([…], resistant to chloroquine); average of duplicate determinations. Selectivity index for P. falciparum (SIp), expressed as the ratio [IC50 (L6/IC50 (P. falciparum)]. Leishmania donovani (MHOM/SD/62/IS-CL2D) axenic amastigotes; average of duplicate determinations. Selectivity index for L. donovani (SIL), expressed as the ratio [IC50 (L6/IC50 (L. donovani)]. Trypanosoma cruzi; average of duplicate determinations. Selectivity index for T. cruzi (SIC), expressed as the ratio [IC50(L6/IC50(T. cruzi)]. IA. Nucleoside analogs designed to be activated via Pathway I. IB. Nucleoside analogs designed to be activated via Pathway II. Phth=phthalimido.
In vitro growth inhibition assay of P. falciparum (KI). The determination of IC50 values against erythrocytic stages of P. falciparum was carried out in duplicate using the [^3H]-hypoxanthine incorporation assay.^58,59

**Q.** `CCN(CC)CCCC(C)Nc1ccnc2cc(Cl)ccc12` (stereo not shown) [chloroquine, reference compound] was tested. Which IC50 did it give?
**A.** The IC50 was 71 nM.
